{
  "source": "patent US11981794B2",
  "about": "“Curable composition, cured product, and compound” (TOKYO OHKA KOGYO CO., LTD., priority 2020, dated 2024)",
  "assay": "Solubility of each sample in triethylene glycol dimethyl ether and propylene glycol monomethyl ether acetate",
  "type": "physicochemical",
  "details": "1 g sample in 50 g solvent, stirred at 25° C. for an hour, filtered 0.5 μm",
  "note": "Some of these results come from one statement about several compounds together.",
  "data": [
    {"compound": "c1ccc(Nc2nc(Nc3ccccc3)nc(Nc3ccc(-c4ccc(-c5ccccc5)cc4)cc3)n2)cc1", "note": "[Compound A-12]", "values": [
      {"measurement": "concentration of solution in propylene glycol monomethyl ether acetate", "value": "≤ 0.5", "unit": "% by mass"},
      {"measurement": "concentration of solution in triethylene glycol dimethyl ether", "value": "≤ 0.5", "unit": "% by mass"}
    ]}
  ]
}
